Results are given in words; binding and its absence hold for the method and conditions named. Binding calls can cover weak binding; strength is not graded here.
Biological target: human FGFR2 alpha IIIb (human)
Assay: ELISA check of the anti-mouse IgG (Fc specific) POD conjugate

- binding: binds
B1: M048-D01-mIgG2a (antibody)
heavy: EVQLLESGGGLVQPGGSLRLSCAASGFTFSSYAMSWVRQAPGKGLEWVSAISGSGTSTYYADSVKGRFTISRDNSKNTLYLQMNSLRAEDTAVYYCARVRYNWNHGDWFDPWGQGTLVTVSSAKTTAPSVYPLAPVCGDTTGSSVTLGCLVKGYFPEPVTLTWNSGSLSSGVHTFPAVLQSDLYTLSSSVTVTSSTWPSQSITCNVAHPASSTKVDKKIEPRGPTIKPCPPCKCPAPNLLGGPSVFIFPPKIKDVLMISLSPIVTCVVVDVSEDDPDVQISWFVNNVEVHTAQTQTHREDYNSTLRVVSALPIQHQDWMSGKEFKCKVNNKDLPAPIERTISKPKGSVRAPQVYVLPPPEEEMTKKQVTLTCMVTDFMPEDIYVEWTNNGKTELNYKNTEPVLDSDGSYFMYSKLRVEKKNWVERNSYSCSVVHEGLHNHHTTKSFSRTPGK
VL: QSVLTQPPSASGTPGQRVTISCSGSSSNIGNNYVSWYQQLPGTAPKLLIYENYNRPAGVPDRFSGSKSGTSASLAISGLRSEDEADYYCSSWDDSLNYWVFGGGTKLTVL

— patent publication US20140322220A1
